# According to PubChem BioAssay AID540276 (National Center for Advancing Translational Sciences (NCATS), 2011):
# Screen size: about 300,000 compounds; about 5,400 (1.8%) were called active. Inconclusive means that the source gave no clear call. Such entries were picked first, then a sample of the others. Calls come from the whole dose curve; tested in HEK293 cells. Potencies beside an inconclusive call are fits to weak or partial responses and may not hold up.
# Assay: qHTS for inhibitors of binding or entry into cells for Marburg Virus
# Conditions: Marburg virus pseudotyped entry inhibition, cell reporter; activity change, negative = inhibition: at 37.8 µM (top of the series) unless noted
# % is set by controls: 0 for no effect and ±100 for the full control effect; potency is the fitted concentration of half-maximal effect.
Structure (SMILES),"activity change, negative = inhibition",Potency
CCN1CCCC(NC(=O)c2cc([N+](=O)[O-])ccc2OC)C1 (configuration not stated),inactive: -3.34%,
COc1ccc(C2=CCCC2)c(OC)c1,inactive: 17.3%,
Cc1ccsc1-c1nc(CN2CCCC2c2ccc(F)cc2)c(C)o1 (configuration not stated),,"inconclusive: 5.62 µM [inhibitor, single point]"
CC(C)C(C(=O)NCc1ccco1)N(C(=O)CNS(=O)(=O)c1ccc(Cl)cc1)C1CCCC1 (configuration not stated),,"inconclusive: 8.91 µM [inhibitor, partial curve, poor fit]"
CCN1CCc2nc3sc(C(=O)Nc4cccc(Cl)c4C)c(N)c3cc2C1,,"inconclusive: 10 µM [inhibitor, partial curve, poor fit]"
COc1ccc(/C=N/OC/C(O)=C(\C#N)c2nc3ccccc3[nH]2)cc1OC,,"inconclusive: 35.5 µM [inhibitor, single point]"
O=C1/C(=C/N(C(=O)c2ccco2)c2ccc(Cl)cc2)Sc2ccccc21,,"inconclusive: 8.91 µM [inhibitor, partial curve, poor fit]"
CCC(=O)N1CCc2cc(Br)cc(S(=O)(=O)N3CCCC(C(=O)Nc4ccc(C(C)C)cc4)C3)c21 (configuration not stated),inactive: -12.3% [at 46.1 µM],
COc1ccc(CCNC(=O)c2ccc(CN3CCC(Cc4ccccc4)CC3)cc2)cc1OC,,"inconclusive: 1 µM [activator, partial curve, poor fit]"
Cc1cc(C)c(S(=O)(=O)NCC(c2ccc3c(c2)OCO3)N2CCOCC2)c(C)c1 (configuration not stated),,"inconclusive: 7.08 µM [activator, partial curve, poor fit]"
O=C(c1ccc(F)cc1Cl)N1CCN(S(=O)(=O)c2cccs2)CC1,,"inconclusive: 0.355 µM [inhibitor, full curve, poor fit]"
COc1cc(CNCCc2ccccc2F)ccc1OCc1ccc(Cl)nc1,,"inconclusive: 22.4 µM [inhibitor, single point]"
CC(=O)N1CCOc2ccc(S(=O)(=O)NCCc3ccccc3)cc21,inactive: -1.18% [at 46.1 µM],
CCc1noc(C)c1C(=O)NCCN1C(=O)S/C(=C\c2ccc(OC)cc2)C1=O,inactive: -4.13%,
CCOc1ccc(NC(=O)/C(C=Nc2ccccc2)=C(\C)O)cc1,,"inconclusive: 3.55 µM [inhibitor, single point]"
COc1ccc(S(=O)(=O)N2CCOCC2)cc1NC(=O)CSc1ccccc1,inactive: -15.1%,
C[C@]12c3[nH]c4cc(-c5ccco5)ccc4c3CCN1C(=O)[C@@H](CC(=O)NCc1ccco1)C[C@@H]2C(=O)N1CCOCC1,inactive: 0.739%,
COc1ccccc1/C=C/C=N/NC(=O)CN1CCN(S(=O)(=O)c2ccc(C)cc2)CC1,,"inconclusive: 7.94 µM [inhibitor, partial curve, poor fit]"
Cn1c(O)c(/C=N/N2CCOCC2)c(=O)n(-c2ccccc2)c1=S,inactive: 2.43%,
CCOc1ccc(CC(=O)Nc2ccc(S(=O)(=O)N3CCCC3)cc2)cc1,,"inconclusive: 7.08 µM [inhibitor, partial curve, poor fit]"
COC(=O)c1ccc(C(=O)N=c2sccn2C)cc1,,"inconclusive: 2 µM [activator, partial curve, poor fit]"

Structure (SMILES),"activity change, negative = inhibition",Potency
CC(=O)Nc1cc(C(F)(F)F)ccc1Oc1cccc(Br)c1,inactive: -27.5%,
CC1=C(C#N)C(/C=N/OCc2ccc(F)cc2Cl)CC(=O)N1 (configuration not stated),inactive: 8.1% [at 14.2 µM],
CCOC(=O)N1CCC(NC(=O)C2CCCN(S(=O)(=O)c3cccc4nsnc34)C2)CC1 (configuration not stated),,inactive
COc1cc(/C=C2/S/C(=N/S(=O)(=O)c3ccccc3)NC2=O)c([N+](=O)[O-])cc1OC,,"inconclusive: 35.5 µM [inhibitor, single point]"
COc1cccc(OC)c1C(=O)Nc1ccc(S(=O)(=O)Nc2nccc(C)n2)cc1,,"inconclusive: 7.08 µM [inhibitor, full curve, poor fit]"
COc1ccc(C2C(C#N)=C(SCC(=O)Nc3ccc(C)cc3)NC3=C2C(=O)CC(C)(C)C3)cc1 (configuration not stated),,"inconclusive: 12.6 µM [inhibitor, partial curve, poor fit]"
COc1c(C)cccc1C(=O)Nc1ccc(N2CCN(C(=O)c3ccccc3C)CC2)cc1,,"inconclusive: 10 µM [inhibitor, partial curve, poor fit]"
COCCn1c(-c2cccs2)nc2c(c(=O)c3ccccc3n2C)c1=O,inactive: -1.63%,
COc1ccc(C2C(C(=O)c3ccco3)=C(O)C(=O)N2c2nnc(C)s2)cc1OC (configuration not stated),,"inconclusive: 3.16 µM [activator, single point]"
Cc1ccc(OCC(O)Cn2c(=N)n(CCN3CCCCC3)c3ccccc32)cc1 (configuration not stated),,active: 8.2 µM
Cc1nc2ccccc2c(=O)n1/N=C/c1ccccc1Cl,,"inconclusive: 0.562 µM [activator, full curve, poor fit]"
CCN1CCN(c2cc(C)c3cc(NC(=O)c4cc(Cl)ccc4OC)ccc3n2)CC1,,"inconclusive: 14.1 µM [inhibitor, partial curve, poor fit]"
C=CCNc1nc2c3ccccc3n(C(C)=O)c2s1,inactive: 0.551% [at 46.1 µM],
COc1ccc(/C=C2\CCCC3C2=NN(C(=O)c2scnc2C)C3c2ccc(OC)c(OC)c2)cc1OC (configuration not stated),,"inconclusive: 1.16 µM [activator, partial curve, poor fit]"
CCc1ccc(-c2csc(NC(=O)c3cccnc3)n2)cc1,,"inconclusive: 6.51 µM [inhibitor, partial curve, poor fit]"
Cc1ccc(C(=O)NCCn2ccc3ccccc32)cc1[N+](=O)[O-],,"inconclusive: 35.5 µM [inhibitor, partial curve, poor fit]"
COc1ccc(S(=O)(=O)N2CCOCC2)cc1NC(=O)CSc1nnc2c(n1)[nH]c1ccccc12,,"inconclusive: 10 µM [inhibitor, partial curve]"
NC1=NC2(CCCCC2)N=C(Nc2ccc(Br)cc2)N1,inactive: 16.3%,
CCCOc1ccc(N2CC(C(=O)Nc3ccccc3C(=O)NCc3ccco3)CC2=O)cc1 (configuration not stated),inactive: -27.5%,
COc1cc2cc(CN(CCO)S(=O)(=O)c3ccccc3)c(=O)[nH]c2cc1OC,inactive: 1.52%,
O=C1c2ccccc2NC(c2ccc3c(c2)OCO3)N1O (configuration not stated),,"inconclusive: 35.5 µM [inhibitor, single point]"

# As a working copy, 12 of the compounds above.
Structure (SMILES),"activity change, negative = inhibition",Potency
CCOc1ccc(NC(=O)/C(C=Nc2ccccc2)=C(\C)O)cc1,,"inconclusive: 3.55 µM [inhibitor, single point]"
COc1ccc(S(=O)(=O)N2CCOCC2)cc1NC(=O)CSc1ccccc1,inactive: -15.1%,
C[C@]12c3[nH]c4cc(-c5ccco5)ccc4c3CCN1C(=O)[C@@H](CC(=O)NCc1ccco1)C[C@@H]2C(=O)N1CCOCC1,inactive: 0.739%,
COc1ccccc1/C=C/C=N/NC(=O)CN1CCN(S(=O)(=O)c2ccc(C)cc2)CC1,,"inconclusive: 7.94 µM [inhibitor, partial curve, poor fit]"
Cn1c(O)c(/C=N/N2CCOCC2)c(=O)n(-c2ccccc2)c1=S,inactive: 2.43%,
CCOc1ccc(CC(=O)Nc2ccc(S(=O)(=O)N3CCCC3)cc2)cc1,,"inconclusive: 7.08 µM [inhibitor, partial curve, poor fit]"
COC(=O)c1ccc(C(=O)N=c2sccn2C)cc1,,"inconclusive: 2 µM [activator, partial curve, poor fit]"
CC(=O)Nc1cc(C(F)(F)F)ccc1Oc1cccc(Br)c1,inactive: -27.5%,
CC1=C(C#N)C(/C=N/OCc2ccc(F)cc2Cl)CC(=O)N1 (configuration not stated),inactive: 8.1% [at 14.2 µM],
CCOC(=O)N1CCC(NC(=O)C2CCCN(S(=O)(=O)c3cccc4nsnc34)C2)CC1 (configuration not stated),,inactive
COc1cc(/C=C2/S/C(=N/S(=O)(=O)c3ccccc3)NC2=O)c([N+](=O)[O-])cc1OC,,"inconclusive: 35.5 µM [inhibitor, single point]"
COc1cccc(OC)c1C(=O)Nc1ccc(S(=O)(=O)Nc2nccc(C)n2)cc1,,"inconclusive: 7.08 µM [inhibitor, full curve, poor fit]"
